The values that follow come from paper PMC6504953, “Cauliflower mosaic virus transactivator protein (TAV) can suppress nonsense-mediated decay by targeting VARICOSE, a scaffold protein of the decapping complex” (Scientific Reports, 2019).

Results are given in words; binding and its absence hold for the method and conditions named. Where a sequence is shown, tags or fusion partners need not be part of it.

This test concerns the target C-terminal domain of TAV fused to the Gal4 binding domain (Cauliflower mosaic virus (strain CM1841)). In words: two-hybrid; Gal4 AD and BD fusions co-transformed in yeast strain AH109; selection on medium lacking Leu, Trp and Ade; equal OD600 units and 1/10 and 1/100 dilutions spotted, 2 days; self-interaction of TAV: two fusions of entire TAV.

B1: VCS-C2 domain (aa 1181-1341) fused to the Gal4 activation domain (domain or fragment, UniProt Q9LTT8 1181-1341)
chain: NSGGSNSLVTQLSGGPLGALLEKVEAPMDPTTELSRLISERKYEESFTSALQRSDVSIVSWLCSQVDLRGLLAMNPLPLSQGVLLSLLQQLACDISKDTSRKLAWMTDVVAAINPSDQMIAVHARPIFEQVYQILHHHRNAPGSDVSAIRLIMHVINSMLM
For B1, the binding entry is “no binding”.
